Source: patent publication US20240382633A1, “RADIOPHARMACEUTICALS, METHODS FOR THE PRODUCTION THEREOF, AND USES IN TREATMENT, DIAGNOSIS AND IMAGING DISEASES” (priority 2021, published 2024)
Part of at least one peptide drawing is inferred or uncertain, most often the ends.

Test system: PC3 cells
Test: Cell binding studies (receptor-bound and internalized radioligand)
Assay type: cell-based
Conditions: 25° C.; for time of maximum total cellular binding: time points 15, 30 and 60 min; for maximum total cellular binding: ~200 kBq radio-ligand, 15/30/60 min, percentage of applied activity per 10^5 cells

CC(C)C[C@H](NC(=O)C[C@H](O)[C@H](CC(C)C)NC(=O)[C@H](Cc1c[nH]cn1)NC(=O)CNC(=O)[C@@H](NC(=O)[C@H](C)NC(=O)[C@H](Cc1c[nH]c2ccccc12)NC(=O)[C@H](CCC(N)=O)NC(=O)[C@@H](Cc1ccccc1)NC(=O)CCOCCOCCOCCOCCNC(=O)CCCC(=O)NC12CNCCNCC(NC(=O)CCCC(=O)NCCOCCOCCOCCOCCC(=O)N[C@H](Cc3ccccc3)C(=O)N[C@@H](CCC(N)=O)C(=O)N[C@@H](Cc3c[nH]c4ccccc34)C(=O)N[C@@H](C)C(=O)N[C@H](C(=O)NCC(=O)N[C@@H](Cc3c[nH]cn3)C(=O)N[C@@H](CC(C)C)[C@@H](O)CC(=O)N[C@@H](CC(C)C)C(N)=O)C(C)C)(CNCCNC1)CNCCNC2)C(C)C)C(N)=O [[^64Cu]Formula (Ia), metal not drawn]
time of maximum total cellular binding: 15 min | maximum total cellular binding: ~2.5%

CC(C)C[C@H](NC(=O)C[C@H](O)[C@H](CC(C)C)NC(=O)[C@H](Cc1c[nH]cn1)NC(=O)CNC(=O)[C@@H](NC(=O)[C@H](C)NC(=O)[C@H](Cc1c[nH]c2ccccc12)NC(=O)[C@H](CCC(N)=O)NC(=O)[C@@H](Cc1ccccc1)NC(=O)CCOCCOCCOCCOCCNC(=O)CCCC(=O)NC12CNCCNCC(C)(CNCCNC1)CNCCNC2)C(C)C)C(N)=O [[^64Cu]Formula (Ib), metal not drawn]
time of maximum total cellular binding: 30 min | maximum total cellular binding: ~1.5%
